Drawing on US10138195B2, “Organic compounds” (Givaudan, S. A., priority 2014, dated 2018), this text covers Odour for four compounds.

Molecules are shown by their SMILES.

The data set in a line: Odour description.
As for `C=C(C)Cc1ccc(CCC=O)cc1` [Example 1, 3-(4-(2-Methylallyl)phenyl)propanal], the Odour entry is reported as “floral, green, cyclamen, watery”.
Consider `C=C(C)Cc1ccc(C(C)CC=O)cc1` (stereo not shown) [Example 2, 3-(4-(2-Methylallyl)phenyl)butanal], for which the Odour result was “floral, green, aldehydic, watery, buttery”.
Consider `C=C(C)Cc1ccc(CC(C)C=O)cc1` (stereo not shown) [Example 3, 2-Methyl-3-(4-(2-methylallyl)phenyl)propanal], for which the Odour result is reported as “aldehydic, metallic, watery, fatty”.
For `C=C(C)Cc1ccc(CCC=O)c(C)c1` [Example 4, 3-(2-Methyl-4-(2-methylallyl)phenyl) propanal], the Odour result is “floral, aldehydic, green, waxy, cinnamic, lilac”.
